These are yes or no findings as the source states them, for the method shown. For some of these results: Binding seen in cells or lysates may run through a third protein. Some binding calls cover weakened binding; strength is not graded here. Tags and fused reporters may be left off the sequences shown. One block for each binder: values may come before it.
Assays:
[1] = molecular target: T1, 6His-Z-TEV-Ndc80 (S. pombe) (UniProt Q10198); assay: pull-down; co-purification on Protino Ni-TED resin of two chains co-expressed in E. coli, only one of them with 6His; Ndc80 buffer (50 mM potassium phosphate pH7.2, 300 mM KCl, 10% glycerol, 2 mM MgCl2, 1 mM beta-mercaptoethanol), 4 °C, elution with 300 mM imidazole
T1 sequence: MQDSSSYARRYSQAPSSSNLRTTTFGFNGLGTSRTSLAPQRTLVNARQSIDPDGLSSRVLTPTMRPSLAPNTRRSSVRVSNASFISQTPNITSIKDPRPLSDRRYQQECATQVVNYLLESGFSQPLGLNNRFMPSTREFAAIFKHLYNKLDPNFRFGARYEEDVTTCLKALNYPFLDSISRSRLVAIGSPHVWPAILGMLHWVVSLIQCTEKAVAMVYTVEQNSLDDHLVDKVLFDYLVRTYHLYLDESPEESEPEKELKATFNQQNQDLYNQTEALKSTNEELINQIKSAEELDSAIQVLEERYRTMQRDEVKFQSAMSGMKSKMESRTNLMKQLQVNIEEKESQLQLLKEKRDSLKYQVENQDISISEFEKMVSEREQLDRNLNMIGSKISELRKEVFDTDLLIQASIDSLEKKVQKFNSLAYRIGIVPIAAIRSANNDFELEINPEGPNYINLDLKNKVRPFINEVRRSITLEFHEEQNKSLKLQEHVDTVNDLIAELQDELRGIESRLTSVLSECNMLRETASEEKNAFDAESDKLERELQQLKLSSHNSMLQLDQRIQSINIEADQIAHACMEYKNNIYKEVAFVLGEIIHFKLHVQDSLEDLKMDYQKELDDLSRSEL

[2] = molecular target: T2, 6His-Z-TEV-Spc25-eGFP (S. pombe) (UniProt Q10430); assay: as above
T2 sequence: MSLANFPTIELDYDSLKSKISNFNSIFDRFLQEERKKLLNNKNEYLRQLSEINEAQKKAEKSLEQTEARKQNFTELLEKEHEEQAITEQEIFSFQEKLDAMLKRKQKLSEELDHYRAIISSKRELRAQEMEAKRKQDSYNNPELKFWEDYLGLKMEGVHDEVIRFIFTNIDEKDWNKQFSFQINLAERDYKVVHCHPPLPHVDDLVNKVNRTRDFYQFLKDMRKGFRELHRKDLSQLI

[3] = molecular target: T3, 6His-Z-TEV-Ndc80/Z-TEV-Nuf2 sub-complex (S. pombe) (UniProt Q10198+Q10173); assay: pull-down; equal amounts (10 mg) of the two purified sub-complexes mixed in Ndc80 buffer, 4 °C, 16 h; assembled complex held on Protino Ni-TED resin by 6His-Z-Ndc80 and eluted; both purified
T3 sequence 1: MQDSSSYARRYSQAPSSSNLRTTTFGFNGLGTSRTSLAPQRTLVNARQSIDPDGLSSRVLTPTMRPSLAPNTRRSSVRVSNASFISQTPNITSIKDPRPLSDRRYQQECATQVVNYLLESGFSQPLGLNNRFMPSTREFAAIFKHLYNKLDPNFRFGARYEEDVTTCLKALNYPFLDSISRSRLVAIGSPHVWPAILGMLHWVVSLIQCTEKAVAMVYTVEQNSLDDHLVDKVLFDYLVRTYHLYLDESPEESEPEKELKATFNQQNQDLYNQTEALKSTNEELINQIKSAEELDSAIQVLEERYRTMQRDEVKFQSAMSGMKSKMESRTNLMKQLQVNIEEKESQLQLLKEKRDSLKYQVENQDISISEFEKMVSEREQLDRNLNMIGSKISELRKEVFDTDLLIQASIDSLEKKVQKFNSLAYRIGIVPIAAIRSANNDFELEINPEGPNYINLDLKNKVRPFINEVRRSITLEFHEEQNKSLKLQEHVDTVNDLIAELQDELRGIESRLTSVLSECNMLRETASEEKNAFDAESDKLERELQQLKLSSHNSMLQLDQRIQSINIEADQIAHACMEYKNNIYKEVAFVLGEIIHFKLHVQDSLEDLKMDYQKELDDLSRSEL
T3 sequence 2: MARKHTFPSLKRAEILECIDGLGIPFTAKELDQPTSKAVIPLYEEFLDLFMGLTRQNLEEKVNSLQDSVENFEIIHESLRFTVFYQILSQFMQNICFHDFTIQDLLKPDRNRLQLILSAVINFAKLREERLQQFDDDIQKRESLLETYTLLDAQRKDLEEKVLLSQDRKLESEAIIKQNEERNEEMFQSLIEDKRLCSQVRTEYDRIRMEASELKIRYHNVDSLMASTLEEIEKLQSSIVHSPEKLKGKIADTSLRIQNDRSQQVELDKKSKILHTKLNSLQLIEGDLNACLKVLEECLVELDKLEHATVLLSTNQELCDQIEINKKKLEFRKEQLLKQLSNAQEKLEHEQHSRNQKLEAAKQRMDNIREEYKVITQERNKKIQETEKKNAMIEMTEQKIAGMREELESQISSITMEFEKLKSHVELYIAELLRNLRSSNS

[4] = molecular target: T4, Ndc80-Nuf2 sub-complex, 6His-Z and Z-tag removed (S. pombe) (UniProt Q10198+Q10173); assay: SEC; Superose 6 10/300 GL in ice-cold Ndc80 buffer, after TEV removal of 6His-Z and Z-tag; fractions on SDS-PAGE, densitometry of bands; both purified
T4 sequence 1: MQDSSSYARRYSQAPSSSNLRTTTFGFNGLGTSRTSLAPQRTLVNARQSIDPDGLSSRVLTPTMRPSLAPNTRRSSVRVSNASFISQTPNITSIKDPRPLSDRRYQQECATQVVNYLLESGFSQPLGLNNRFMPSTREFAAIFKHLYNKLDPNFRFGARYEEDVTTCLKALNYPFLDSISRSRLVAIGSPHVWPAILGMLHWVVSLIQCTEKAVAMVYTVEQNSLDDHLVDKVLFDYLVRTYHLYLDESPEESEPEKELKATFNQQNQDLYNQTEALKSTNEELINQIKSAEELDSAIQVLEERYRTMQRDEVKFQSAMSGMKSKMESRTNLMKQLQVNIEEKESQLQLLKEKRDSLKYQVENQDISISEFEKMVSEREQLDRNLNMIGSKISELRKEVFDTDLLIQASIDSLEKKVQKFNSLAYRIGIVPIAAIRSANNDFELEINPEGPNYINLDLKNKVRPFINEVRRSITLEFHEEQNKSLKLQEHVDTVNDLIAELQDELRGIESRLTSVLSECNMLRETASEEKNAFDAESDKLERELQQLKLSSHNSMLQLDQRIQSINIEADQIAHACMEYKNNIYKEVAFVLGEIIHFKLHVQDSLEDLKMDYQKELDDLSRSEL
T4 sequence 2: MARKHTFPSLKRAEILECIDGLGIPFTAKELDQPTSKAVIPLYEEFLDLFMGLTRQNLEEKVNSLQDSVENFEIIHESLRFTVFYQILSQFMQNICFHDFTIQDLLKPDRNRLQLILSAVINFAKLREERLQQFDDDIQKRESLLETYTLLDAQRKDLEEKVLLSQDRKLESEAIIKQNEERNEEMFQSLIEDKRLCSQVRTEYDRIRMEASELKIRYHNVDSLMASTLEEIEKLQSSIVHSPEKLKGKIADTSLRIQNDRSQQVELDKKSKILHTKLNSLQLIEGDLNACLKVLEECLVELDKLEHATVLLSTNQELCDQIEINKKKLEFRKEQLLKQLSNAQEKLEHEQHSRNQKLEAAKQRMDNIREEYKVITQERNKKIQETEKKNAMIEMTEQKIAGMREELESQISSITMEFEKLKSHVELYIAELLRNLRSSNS

binding [1]: binds
B1: Z-TEV-Nuf2 (protein, UniProt Q10173 1-441)
chain: MARKHTFPSLKRAEILECIDGLGIPFTAKELDQPTSKAVIPLYEEFLDLFMGLTRQNLEEKVNSLQDSVENFEIIHESLRFTVFYQILSQFMQNICFHDFTIQDLLKPDRNRLQLILSAVINFAKLREERLQQFDDDIQKRESLLETYTLLDAQRKDLEEKVLLSQDRKLESEAIIKQNEERNEEMFQSLIEDKRLCSQVRTEYDRIRMEASELKIRYHNVDSLMASTLEEIEKLQSSIVHSPEKLKGKIADTSLRIQNDRSQQVELDKKSKILHTKLNSLQLIEGDLNACLKVLEECLVELDKLEHATVLLSTNQELCDQIEINKKKLEFRKEQLLKQLSNAQEKLEHEQHSRNQKLEAAKQRMDNIREEYKVITQERNKKIQETEKKNAMIEMTEQKIAGMREELESQISSITMEFEKLKSHVELYIAELLRNLRSSNS

binding [2]: binds
B2: Z-TEV-Spc24-eGFP (protein, UniProt Q9UST6 1-198)
chain: MSDSPIELMRSTLAGFQIAPDVKTISNIQDIRAQIQSFREKELEGSQTKFKVLSRKLEISTQAMESLKQTAESSQHAEEILSREKEKFRIAKLLNITENEIMSLESQLQKMKEQLLQLEERENTSEDICQSEENANMLKLNFYHSLGFDLETAENTGNKRVIIHTENDLQTVQISNKYSPYFYSNYFWDLLDDSKDKK

binding [3]: binds
binding [4]: binds
B3: Spc24-eGFP/Spc25-eGFP sub-complex (complex, UniProt Q9UST6 1-198; Q10430 1-238)
chain 1: MSDSPIELMRSTLAGFQIAPDVKTISNIQDIRAQIQSFREKELEGSQTKFKVLSRKLEISTQAMESLKQTAESSQHAEEILSREKEKFRIAKLLNITENEIMSLESQLQKMKEQLLQLEERENTSEDICQSEENANMLKLNFYHSLGFDLETAENTGNKRVIIHTENDLQTVQISNKYSPYFYSNYFWDLLDDSKDKK
chain 2: MSLANFPTIELDYDSLKSKISNFNSIFDRFLQEERKKLLNNKNEYLRQLSEINEAQKKAEKSLEQTEARKQNFTELLEKEHEEQAITEQEIFSFQEKLDAMLKRKQKLSEELDHYRAIISSKRELRAQEMEAKRKQDSYNNPELKFWEDYLGLKMEGVHDEVIRFIFTNIDEKDWNKQFSFQINLAERDYKVVHCHPPLPHVDDLVNKVNRTRDFYQFLKDMRKGFRELHRKDLSQLI

— publication PMC5489075, “Purification and characterisation of the fission yeast Ndc80 complex” (Protein Expression and Purification, 2017)
